Results as given in PMC9246382.
Results are given in words; binding and its absence hold for the method and conditions named. Binding seen in cells or lysates may run through a third protein.

Target: heat shock protein 60 (HSP60), endogenous in human prostate cancer cells (human (endogenous in LNCaP, PC-3, DU145)), P10809
Assay: proximity ligation; cultured PCa cells (PC-3) and patient PCa specimens on a tissue microarray; also DCEM1-treated PC-3 cells and PC-3 xenograft tumors
Conditions: remark: other sources report otherwise

binding: no binding
B1: LON peptidase 1 (LONP1), endogenous in PCa cells, P36776 68-959 (enzyme)
chain: FWEASSRGGGAFSGGEDASEGGAEEGAGGAGGSAGAGEGPVITALTPMTIPDVFPHLPLIAITRNPVFPRFIKIIEVKNKKLVELLRRKVRLAQPYVGVFLKRDDSNESDVVESLDEIYHTGTFAQIHEMQDLGDKLRMIVMGHRRVHISRQLEVEPEEPEAENKHKPRRKSKRGKKEAEDELSARHPAELAMEPTPELPAEVLMVEVENVVHEDFQVTEEVKALTAEIVKTIRDIIALNPLYRESVLQMMQAGQRVVDNPIYLSDMGAALTGAESHELQDVLEETNIPKRLYKALSLLKKEFELSKLQQRLGREVEEKIKQTHRKYLLQEQLKIIKKELGLEKDDKDAIEEKFRERLKELVVPKHVMDVVDEELSKLGLLDNHSSEFNVTRNYLDWLTSIPWGKYSNENLDLARAQAVLEEDHYGMEDVKKRILEFIAVSQLRGSTQGKILCFYGPPGVGKTSIARSIARALNREYFRFSVGGMTDVAEIKGHRRTYVGAMPGKIIQCLKKTKTENPLILIDEVDKIGRGYQGDPSSALLELLDPEQNANFLDHYLDVPVDLSKVLFICTANVTDTIPEPLRDRMEMINVSGYVAQEKLAIAERYLVPQARALCGLDESKAKLSSDVLTLLIKQYCRESGVRNLQKQVEKVLRKSAYKIVSGEAESVEVTPENLQDFVGKPVFTVERMYDVTPPGVVMGLAWTAMGGSTLFVETSLRRPQDKDAKGDKDGSLEVTGQLGEVMKESARIAYTFARAFLMQHAPANDYLVTSHIHLHVPEGATPKDGPSAGCTIVTALLSLAMGRPVRQNLAMTGEVSLTGKILPVGGIKEKTIAAKRAGVTCIVLPAENKKDFYDLAAFITEGLEVHFVEHYREIFDIAFPDEQAEALAVER
